{"source": "PubChem BioAssay AID602313", "about": "(National Center for Advancing Translational Sciences (NCATS), 2012)", "note": "Out of some 390,000 compounds screened, about 760 (0.19%) were called active. The shares of active, inactive and inconclusive entries below differ from those in the screen. The call rests on the fitted dose curve; in most records, active means well fitted inhibition curve with a large enough effect; inconclusive means small, poorly fitted or top-dose-only effect; inactive means flat fitted curve, though single readings scatter. Potencies beside an inconclusive call are fits to weak or partial responses and may not hold up. Potency means the concentration at half of the fitted maximal effect.", "data": [{"assay": "qHTS for Inhibitors of Vif-A3F Interactions: qHTS; further: nearly all actives have a fitted effect of over 65% in size", "settings": "HeLa A3F-eYFP + Vif (tagged APOBEC3F with the HIV-1 protein that degrades it), YFP fluorescence increase; series mostly up to 46.1 µM", "method_in_brief": "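Fluorescence increase (Ex 488/Em 500-530) after overnight compound treatment at 37 deg C flags inhibition of Vif-driven A3F-eYFP loss in stable HeLa A3F-eYFP/Vif cells seeded overnight beforehand.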", "values": [{"smiles": "COC(=O)C1=C(C(=O)OC)C(c2cc(Cl)ccc2O)c2sc(=O)[nH]c2S1", "note": "(stereo not given)", "Potency": "inactive"}, {"smiles": "C=CCNC(=S)N/N=C(\\C)c1ccc(OC)cc1", "Potency": "active: 10 µM"}, {"smiles": "COC(=O)Cn1c(C)nc([N+](=O)[O-])c1Br", "Potency": "inactive"}, {"smiles": "CCCCN(CCCC)CCCNC(=O)c1cc(-c2ccc(Cl)s2)nc2ccccc12", "Potency": "inactive"}, {"smiles": "CCCc1cc(=O)[nH]c(Nc2cc(Cl)cc(Cl)c2)n1", "Potency": "inactive"}, {"smiles": "CCOc1ccc2nc(NC3=NC(c4ccc(OC)cc4)CC(=O)N3)nc(C)c2c1", "note": "(stereo not given)", "Potency": "inconclusive: 31.6 µM [inhibitor, single point]"}, {"smiles": "CCOC(=O)CSC1=NC(=O)/C(=C/c2ccc(OC)cc2)S1", "Potency": "inconclusive: 22.4 µM [inhibitor, single point]"}, {"smiles": "O=C(c1ccc(-n2cccc2)cc1)N1CCCCC1", "Potency": "inconclusive: 5.01 µM [inhibitor, single point]"}, {"smiles": "Cc1ccccc1NC(=O)c1sc2nc(-c3cc4ccccc4oc3=O)[nH]c(=O)c2c1C", "Potency": "inconclusive: 4.47 µM [inhibitor, single point]"}, {"smiles": "CC(C)NC(=O)c1ccc(CSc2nc3ccncc3n2Cc2cccc(F)c2)cc1", "Potency": "inactive"}, {"smiles": "COc1ccc(/C=C2\\N=C(C)N(c3ccc4ccccc4c3)C2=O)cc1OC", "Potency": "inconclusive: 22.4 µM [inhibitor, partial curve, poor fit]"}, {"smiles": "FC(F)(F)c1cc(-c2ccco2)nc(NCc2ccc(Cl)cc2)n1", "Potency": "inconclusive: 35.5 µM [inhibitor, single point]"}, {"smiles": "COc1ccc(NC2CCCN(C(=O)Cn3ccc(C)n3)C2)cc1OC", "note": "(stereo not given)", "Potency": "inconclusive: 35.5 µM [inhibitor, partial curve, poor fit]"}, {"smiles": "CCNC(=S)N/N=C(\\C)c1cccc(C(F)(F)F)c1", "Potency": "inconclusive: 22.4 µM [inhibitor, single point]"}, {"smiles": "Cc1cc(Nc2cc(Cl)ccc2C)n2nc(-c3ccccc3)nc2n1", "Potency": "inactive"}, {"smiles": "CN1CCN(CCCNC(=O)c2ccc(/C=C3\\Sc4ccccc4N(Cc4ccccc4F)C3=O)cc2)CC1", "Potency": "inconclusive: 6.31 µM [inhibitor, single point]"}, {"smiles": "Cc1ccc(/C=C/C(=O)N2CC(=O)Nc3ccccc32)o1", "Potency": "inactive"}, {"smiles": "COc1ccccc1-n1c(-c2cc(-c3ccc(F)cc3)n[nH]2)n[nH]c1=S", "Potency": "inconclusive: 35.5 µM [inhibitor, single point]"}, {"smiles": "Cc1ccccc1-c1noc(-c2ccc(NCc3cccnc3)c([N+](=O)[O-])c2)n1", "Potency": "inconclusive: 35.5 µM [inhibitor, single point]"}, {"smiles": "COc1ccc(-c2nc3cnccn3c2NC2CCCCC2)cc1-c1cccc(Cl)c1", "Potency": "active: 22.4 µM"}]}]}
